Paper PMC5667994
Results are given in words; binding and its absence hold for the method and conditions named. In cells and extracts the contact can be indirect. Some binding calls cover weakened binding; strength is not graded here.

Assays:
[1] = target: T1, mammalian Ste20-like kinase 1 (MST1) (human (endogenous in A549)) (UniProt Q13043); assay: co-IP; endogenous proteins in A549 cell lysate; antibody overnight at 4 °C, protein A/G agarose beads, washed with RIPA buffer, western blot
T1 sequence: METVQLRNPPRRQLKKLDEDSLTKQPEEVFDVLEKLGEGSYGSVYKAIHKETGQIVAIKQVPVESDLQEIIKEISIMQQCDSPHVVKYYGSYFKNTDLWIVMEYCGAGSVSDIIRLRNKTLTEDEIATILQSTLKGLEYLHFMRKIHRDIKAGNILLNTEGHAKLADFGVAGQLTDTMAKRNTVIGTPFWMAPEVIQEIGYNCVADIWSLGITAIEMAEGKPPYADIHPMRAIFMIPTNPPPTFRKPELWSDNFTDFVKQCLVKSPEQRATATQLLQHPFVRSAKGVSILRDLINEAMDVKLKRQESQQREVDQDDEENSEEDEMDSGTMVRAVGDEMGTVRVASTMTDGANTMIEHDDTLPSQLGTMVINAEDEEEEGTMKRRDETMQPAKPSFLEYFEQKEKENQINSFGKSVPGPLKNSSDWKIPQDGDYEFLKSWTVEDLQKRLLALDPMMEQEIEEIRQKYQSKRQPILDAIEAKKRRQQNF

[2] = target: T1, mammalian Ste20-like kinase 1 (MST1) (human (endogenous in A549)); assay: co-IP; A549 cells transfected with RASSF7 or RASSF7 mutant plasmids; lysate, antibody overnight at 4 °C, protein A/G agarose beads, washed with RIPA buffer, western blot

B1: Ras-association domain family 7 (RASSF7), endogenous (protein, UniProt Q02833 1-373)
chain: MLLGLAAMELKVWVDGIQRVVCGVSEQTTCQEVVIALAQAIGQTGRFVLVQRLREKERQLLPQECPVGAQATCGQFASDVQFVLRRTGPSLAGRPSSDSCPPPERCLIRASLPVKPRAALGCEPRKTLTPEPAPSLSRPGPAAPVTPTPGCCTDLRGLELRVQRNAEELGHEAFWEQELRREQAREREGQARLQALSAATAEHAARLQALDAQARALEAELQLAAEAPGPPSPMASATERLHQDLAVQERQSAEVQGSLALVSRALEAAERALQAQAQELEELNRELRQCNLQQFIQQTGAALPPPPRPDRGPPGTQGPLPPAREESLLGAPSESHAGAQPRPRGGPHDAELLEVAAAPAPEWCPLAAQPQAL
[1]
  binding: binds

B2: RASSF7, overexpressed (pCMV6-RASSF7) (protein, UniProt Q02833 1-373)
chain: B1 chain
[2]
  binding: binds
